PubChem BioAssay AID1259405 | NCATS, 2018
The deposit covers about 50,000 reagents; this is a part drawn at random. In the full data, about 4,000 (8%) were called active. 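Mouse siRNA library applied to hamster cells; one well for each siRNA.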

- Screen: 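Mouse-designed siRNAs used to find CHO productivity engineering targets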 (primary screen)
- Cells: Chinese hamster CHO-K1 ovary cells with stable secreted eGFP expression
- Reagent: single siRNA against mouse genes, 0.8 pmol siRNA per well (2 µl of 400 nM stock)
- Timing: 3 days
- Read-out: 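Percent of the per-plate non-targeting control median for intracellular GFP per well by laser scanning cytometry and for cell viability by ATP luminescence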
- Reading the numbers: GFP, % of control: higher = more GFP per well, higher productivity; viability (ATP), % of control: higher = more viable cells (more ATP)
- Hit rule: 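a knock-down is called active if GFP reaches 120% or more of non-targeting control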

For Snta1 [SID363572314] the deposit lists GFP, % of control 75.4; viability (ATP), % of control 106; inactive. Against Snta1 [SID363574074] the deposit lists GFP, % of control 113; viability (ATP), % of control 93.7; inactive. For Znrd2 [SID363556242], the values are GFP, % of control 90.6; viability (ATP), % of control 57.8; inactive. Against Znrd2 [SID363586692], the entry reads GFP, % of control 57.9; viability (ATP), % of control 64.1; inactive. For Znrd2 [SID363588800] the deposit lists GFP, % of control 78.6; viability (ATP), % of control 54.6; inactive. Knock-down of Bhlhe23 [SID363555268] came out at: GFP, % of control 51.7; viability (ATP), % of control 65.8; inactive.

With knock-down of Bhlhe23 [SID363563929], the record shows GFP, % of control 95.9; viability (ATP), % of control 65.7; inactive. Silencing of Bhlhe23 [SID363587475] gave: GFP, % of control 97.6; viability (ATP), % of control 103; inactive. After knock-down of Ttc8 [SID363545310] the results were GFP, % of control 91.8; viability (ATP), % of control 121; inactive. For Ttc8 [SID363548823], the entry reads GFP, % of control 50.8; viability (ATP), % of control 63.2; inactive. Against Ttc8 [SID363562629], the values are GFP, % of control 82.3; viability (ATP), % of control 51; inactive. For Cox19 [SID363543689] the deposit lists GFP, % of control 56.8; viability (ATP), % of control 51.2; inactive.

Knock-down of Cox19 [SID363551425] gave: GFP, % of control 92.9; viability (ATP), % of control 75; inactive. With knock-down of Cox19 [SID363559030] the results were GFP, % of control 48.2; viability (ATP), % of control 39.3; inactive. Against AY074887 [SID363562179], the entry reads GFP, % of control 63.9; viability (ATP), % of control 71.3; inactive. After knock-down of AY074887 [SID363567317], the screen gave GFP, % of control 101; viability (ATP), % of control 82.6; inactive. Silencing of AY074887 [SID363584674] gave: GFP, % of control 78.6; viability (ATP), % of control 68.1; inactive. Depletion of Slc16a9 [SID363574671] resulted in: GFP, % of control 59.7; viability (ATP), % of control 64.3; inactive.

For Slc16a9 [SID363575727], the values are GFP, % of control 68.7; viability (ATP), % of control 57.9; inactive. With knock-down of Slc16a9 [SID363580303] the results were GFP, % of control 47.8; viability (ATP), % of control 68.2; inactive. Depletion of Tatdn2 [SID363546068] resulted in: GFP, % of control 79; viability (ATP), % of control 81.9; inactive. For Tatdn2 [SID363549581], the values are GFP, % of control 69.7; viability (ATP), % of control 70.6; inactive. After knock-down of Tatdn2 [SID363563387] the results were GFP, % of control 99.9; viability (ATP), % of control 68.8; inactive. Silencing of Hcn2 [SID363574387] gave: GFP, % of control 118; viability (ATP), % of control 95.4; inactive.

After knock-down of Hcn2 [SID363575443], the record shows GFP, % of control 122; viability (ATP), % of control 70.9; active. Depletion of Hcn2 [SID363580019] gave: GFP, % of control 55.4; viability (ATP), % of control 32.1; inactive. Against Or6ae1 [SID363544965], the entry reads GFP, % of control 125; viability (ATP), % of control 44.6; active. With knock-down of Or6ae1 [SID363551293], the screen gave GFP, % of control 75.4; viability (ATP), % of control 92; inactive. Depletion of Or6ae1 [SID363557842] came out at: GFP, % of control 40.5; viability (ATP), % of control 36.9; inactive. After knock-down of Agpat3 [SID363545105], the screen gave GFP, % of control 89.9; viability (ATP), % of control 90.8; inactive.

For Agpat3 [SID363548618] the deposit lists GFP, % of control 74; viability (ATP), % of control 61.2; inactive. Against Agpat3 [SID363562424], the values are GFP, % of control 71.3; viability (ATP), % of control 71.6; inactive. Sav1 [SID363572691] scored GFP, % of control 68.7; viability (ATP), % of control 73.7; inactive. Knock-down of Sav1 [SID363577971] came out at: GFP, % of control 98.3; viability (ATP), % of control 100; inactive. After knock-down of Sav1 [SID363582195], the screen gave GFP, % of control 93.6; viability (ATP), % of control 130; inactive. Dmrt1 [SID363569507] gave GFP, % of control 155; viability (ATP), % of control 133; active.

For Dmrt1 [SID363577251], the values are GFP, % of control 82.4; viability (ATP), % of control 98.3; inactive. With knock-down of Dmrt1 [SID363578659], the record shows GFP, % of control 52.8; viability (ATP), % of control 37.1; inactive. Rnf168 [SID363543784] gave GFP, % of control 91.4; viability (ATP), % of control 85; inactive. After knock-down of Rnf168 [SID363551520], the screen gave GFP, % of control 78.9; viability (ATP), % of control 56; inactive. For Rnf168 [SID363559125] the deposit lists GFP, % of control 93.2; viability (ATP), % of control 82.9; inactive.

7 neighbouring records from above:
Hcn2 [SID363574387]: GFP, % of control = 118; viability (ATP), % of control = 95.4; call = inactive
Hcn2 [SID363575443]: GFP, % of control = 122; viability (ATP), % of control = 70.9; call = active
Hcn2 [SID363580019]: GFP, % of control = 55.4; viability (ATP), % of control = 32.1; call = inactive
Or6ae1 [SID363544965]: GFP, % of control = 125; viability (ATP), % of control = 44.6; call = active
Or6ae1 [SID363551293]: GFP, % of control = 75.4; viability (ATP), % of control = 92; call = inactive
Or6ae1 [SID363557842]: GFP, % of control = 40.5; viability (ATP), % of control = 36.9; call = inactive
Agpat3 [SID363545105]: GFP, % of control = 89.9; viability (ATP), % of control = 90.8; call = inactive
